The list shows a part of the results.

Amino acid sequences for entries named in this document (tags omitted). A change or cut given only in a name is not applied to a line headed by its entry.
UniProt Q9NR77: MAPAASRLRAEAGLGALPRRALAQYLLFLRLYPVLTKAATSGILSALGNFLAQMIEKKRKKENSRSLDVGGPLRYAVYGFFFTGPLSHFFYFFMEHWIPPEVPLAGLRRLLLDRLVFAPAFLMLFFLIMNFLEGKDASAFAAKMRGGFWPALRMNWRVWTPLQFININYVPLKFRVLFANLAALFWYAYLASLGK
UniProt P78330: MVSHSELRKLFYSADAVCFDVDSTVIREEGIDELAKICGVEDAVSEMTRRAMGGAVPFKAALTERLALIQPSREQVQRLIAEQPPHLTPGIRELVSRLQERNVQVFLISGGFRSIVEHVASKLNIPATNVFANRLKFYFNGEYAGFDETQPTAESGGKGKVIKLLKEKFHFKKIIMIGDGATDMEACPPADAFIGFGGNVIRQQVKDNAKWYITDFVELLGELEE
UniProt Q9BXR0: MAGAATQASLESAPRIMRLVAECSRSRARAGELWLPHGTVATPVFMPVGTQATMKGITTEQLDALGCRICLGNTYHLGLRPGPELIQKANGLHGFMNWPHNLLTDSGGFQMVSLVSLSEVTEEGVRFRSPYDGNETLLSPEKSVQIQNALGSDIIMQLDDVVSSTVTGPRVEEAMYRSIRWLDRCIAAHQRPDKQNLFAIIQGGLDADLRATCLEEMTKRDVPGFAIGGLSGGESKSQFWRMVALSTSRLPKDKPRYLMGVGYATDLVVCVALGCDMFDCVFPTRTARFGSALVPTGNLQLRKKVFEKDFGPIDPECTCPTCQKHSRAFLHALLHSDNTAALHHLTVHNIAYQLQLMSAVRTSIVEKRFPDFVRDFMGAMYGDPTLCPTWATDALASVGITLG
UniProt Q96PZ0: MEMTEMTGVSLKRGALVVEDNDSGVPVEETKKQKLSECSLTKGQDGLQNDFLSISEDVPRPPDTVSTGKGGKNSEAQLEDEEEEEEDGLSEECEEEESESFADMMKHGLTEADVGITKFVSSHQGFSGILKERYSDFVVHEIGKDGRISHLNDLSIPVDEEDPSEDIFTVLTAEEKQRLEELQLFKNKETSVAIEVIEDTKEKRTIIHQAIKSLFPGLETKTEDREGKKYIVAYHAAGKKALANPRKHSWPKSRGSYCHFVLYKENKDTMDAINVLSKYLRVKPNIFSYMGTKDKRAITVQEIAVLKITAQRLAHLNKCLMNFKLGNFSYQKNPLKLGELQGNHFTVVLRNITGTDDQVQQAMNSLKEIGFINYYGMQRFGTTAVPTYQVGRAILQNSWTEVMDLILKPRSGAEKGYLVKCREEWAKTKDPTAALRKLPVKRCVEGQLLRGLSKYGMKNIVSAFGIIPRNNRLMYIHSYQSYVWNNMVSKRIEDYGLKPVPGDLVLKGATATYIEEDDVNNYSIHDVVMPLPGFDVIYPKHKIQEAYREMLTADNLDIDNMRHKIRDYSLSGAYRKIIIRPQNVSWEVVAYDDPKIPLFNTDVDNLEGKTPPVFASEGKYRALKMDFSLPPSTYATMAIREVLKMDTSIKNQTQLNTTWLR
UniProt Q9NXS2: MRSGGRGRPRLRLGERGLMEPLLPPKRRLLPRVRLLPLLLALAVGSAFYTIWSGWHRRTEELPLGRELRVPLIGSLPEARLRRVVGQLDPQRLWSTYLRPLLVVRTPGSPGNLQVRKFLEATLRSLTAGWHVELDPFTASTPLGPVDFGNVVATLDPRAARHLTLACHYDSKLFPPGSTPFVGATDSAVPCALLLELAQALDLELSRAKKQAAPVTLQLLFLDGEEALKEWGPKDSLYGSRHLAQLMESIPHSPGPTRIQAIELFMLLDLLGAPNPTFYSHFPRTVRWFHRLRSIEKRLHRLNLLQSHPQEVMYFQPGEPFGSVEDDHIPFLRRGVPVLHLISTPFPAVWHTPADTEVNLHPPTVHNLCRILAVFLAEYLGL
UniProt P20962: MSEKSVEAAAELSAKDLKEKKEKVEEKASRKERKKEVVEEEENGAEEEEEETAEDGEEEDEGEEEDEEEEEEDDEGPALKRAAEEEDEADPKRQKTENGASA
UniProt Q15269: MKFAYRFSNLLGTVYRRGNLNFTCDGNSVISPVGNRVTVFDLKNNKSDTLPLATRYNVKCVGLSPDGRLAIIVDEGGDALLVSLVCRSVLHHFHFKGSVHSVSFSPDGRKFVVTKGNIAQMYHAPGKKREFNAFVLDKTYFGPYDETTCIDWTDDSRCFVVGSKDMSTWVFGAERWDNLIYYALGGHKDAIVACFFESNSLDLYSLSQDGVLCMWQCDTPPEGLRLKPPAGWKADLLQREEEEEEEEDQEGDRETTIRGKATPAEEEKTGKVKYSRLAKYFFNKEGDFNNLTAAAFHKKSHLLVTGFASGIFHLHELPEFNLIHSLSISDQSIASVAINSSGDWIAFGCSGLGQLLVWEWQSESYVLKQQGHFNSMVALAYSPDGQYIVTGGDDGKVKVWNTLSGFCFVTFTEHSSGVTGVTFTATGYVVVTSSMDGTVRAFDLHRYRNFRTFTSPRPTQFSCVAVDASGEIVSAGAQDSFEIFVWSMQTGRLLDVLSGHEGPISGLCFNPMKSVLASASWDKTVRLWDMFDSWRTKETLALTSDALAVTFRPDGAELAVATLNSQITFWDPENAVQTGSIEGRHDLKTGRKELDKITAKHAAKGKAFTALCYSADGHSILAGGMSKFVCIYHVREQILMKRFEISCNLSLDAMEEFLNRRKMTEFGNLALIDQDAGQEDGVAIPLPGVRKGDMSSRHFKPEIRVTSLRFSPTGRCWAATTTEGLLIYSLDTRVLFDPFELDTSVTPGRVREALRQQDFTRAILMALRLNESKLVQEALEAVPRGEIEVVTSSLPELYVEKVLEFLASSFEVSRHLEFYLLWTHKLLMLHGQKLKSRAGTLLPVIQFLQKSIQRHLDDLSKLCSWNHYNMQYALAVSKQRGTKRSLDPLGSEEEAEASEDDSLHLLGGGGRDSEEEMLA
UniProt P09417: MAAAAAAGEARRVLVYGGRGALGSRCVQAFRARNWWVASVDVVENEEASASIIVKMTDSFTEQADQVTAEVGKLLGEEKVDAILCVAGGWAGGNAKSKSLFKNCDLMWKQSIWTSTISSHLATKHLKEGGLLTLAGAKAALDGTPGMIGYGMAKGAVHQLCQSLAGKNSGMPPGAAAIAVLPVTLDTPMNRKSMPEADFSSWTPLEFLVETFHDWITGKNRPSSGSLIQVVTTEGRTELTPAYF
UniProt P20618: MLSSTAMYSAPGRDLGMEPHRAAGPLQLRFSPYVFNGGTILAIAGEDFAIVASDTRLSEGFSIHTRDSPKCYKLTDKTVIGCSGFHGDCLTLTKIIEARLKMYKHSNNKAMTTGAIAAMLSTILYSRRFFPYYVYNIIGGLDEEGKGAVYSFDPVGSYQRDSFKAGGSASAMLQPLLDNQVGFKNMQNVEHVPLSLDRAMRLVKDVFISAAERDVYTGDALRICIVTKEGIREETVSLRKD
UniProt P18433: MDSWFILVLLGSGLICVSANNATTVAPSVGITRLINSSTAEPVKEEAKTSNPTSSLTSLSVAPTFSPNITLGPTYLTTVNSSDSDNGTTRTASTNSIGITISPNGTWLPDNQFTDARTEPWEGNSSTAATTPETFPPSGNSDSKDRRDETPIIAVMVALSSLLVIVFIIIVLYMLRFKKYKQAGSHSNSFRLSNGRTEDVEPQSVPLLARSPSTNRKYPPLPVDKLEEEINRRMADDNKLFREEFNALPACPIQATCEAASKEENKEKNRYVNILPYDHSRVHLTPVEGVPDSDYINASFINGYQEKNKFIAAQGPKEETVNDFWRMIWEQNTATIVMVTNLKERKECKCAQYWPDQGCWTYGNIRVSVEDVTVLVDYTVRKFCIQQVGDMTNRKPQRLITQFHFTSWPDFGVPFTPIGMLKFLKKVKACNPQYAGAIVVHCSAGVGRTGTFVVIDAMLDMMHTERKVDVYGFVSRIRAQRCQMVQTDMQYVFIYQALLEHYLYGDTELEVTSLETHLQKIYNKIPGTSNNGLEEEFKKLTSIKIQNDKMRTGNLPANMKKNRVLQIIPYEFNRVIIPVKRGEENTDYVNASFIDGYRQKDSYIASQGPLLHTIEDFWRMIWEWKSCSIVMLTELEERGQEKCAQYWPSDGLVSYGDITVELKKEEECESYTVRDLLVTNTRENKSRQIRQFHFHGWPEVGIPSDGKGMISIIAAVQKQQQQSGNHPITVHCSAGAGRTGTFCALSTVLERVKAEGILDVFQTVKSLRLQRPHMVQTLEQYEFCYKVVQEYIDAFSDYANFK
UniProt P55036: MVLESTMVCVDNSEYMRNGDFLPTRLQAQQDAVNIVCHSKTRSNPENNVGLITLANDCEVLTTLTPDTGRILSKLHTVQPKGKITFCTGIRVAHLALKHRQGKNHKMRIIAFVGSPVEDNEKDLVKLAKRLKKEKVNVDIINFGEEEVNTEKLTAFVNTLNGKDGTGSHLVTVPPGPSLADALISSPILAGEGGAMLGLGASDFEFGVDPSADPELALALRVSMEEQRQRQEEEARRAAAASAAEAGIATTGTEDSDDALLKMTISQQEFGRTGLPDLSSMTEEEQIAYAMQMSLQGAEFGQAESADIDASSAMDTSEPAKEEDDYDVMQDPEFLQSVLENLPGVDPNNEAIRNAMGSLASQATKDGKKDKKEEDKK
UniProt Q9H0K6: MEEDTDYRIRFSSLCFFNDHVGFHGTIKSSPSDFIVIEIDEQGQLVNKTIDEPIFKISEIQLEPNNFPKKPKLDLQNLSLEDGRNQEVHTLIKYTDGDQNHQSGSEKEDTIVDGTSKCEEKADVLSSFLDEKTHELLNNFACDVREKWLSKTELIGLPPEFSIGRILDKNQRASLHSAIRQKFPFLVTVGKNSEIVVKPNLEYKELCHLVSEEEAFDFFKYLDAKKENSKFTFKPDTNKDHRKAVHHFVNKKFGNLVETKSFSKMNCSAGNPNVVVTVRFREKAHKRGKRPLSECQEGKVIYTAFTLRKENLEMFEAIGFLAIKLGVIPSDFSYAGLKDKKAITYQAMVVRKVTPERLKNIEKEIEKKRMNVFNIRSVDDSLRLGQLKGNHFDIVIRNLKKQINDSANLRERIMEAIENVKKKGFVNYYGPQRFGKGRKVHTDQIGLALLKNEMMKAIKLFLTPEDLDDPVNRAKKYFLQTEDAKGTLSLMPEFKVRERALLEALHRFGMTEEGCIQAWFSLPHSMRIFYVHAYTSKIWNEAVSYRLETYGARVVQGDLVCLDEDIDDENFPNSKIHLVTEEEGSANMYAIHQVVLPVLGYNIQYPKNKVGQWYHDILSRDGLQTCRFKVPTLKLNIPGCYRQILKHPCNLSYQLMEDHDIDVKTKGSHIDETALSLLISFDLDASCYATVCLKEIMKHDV
UniProt O00487, whole entry, looked up: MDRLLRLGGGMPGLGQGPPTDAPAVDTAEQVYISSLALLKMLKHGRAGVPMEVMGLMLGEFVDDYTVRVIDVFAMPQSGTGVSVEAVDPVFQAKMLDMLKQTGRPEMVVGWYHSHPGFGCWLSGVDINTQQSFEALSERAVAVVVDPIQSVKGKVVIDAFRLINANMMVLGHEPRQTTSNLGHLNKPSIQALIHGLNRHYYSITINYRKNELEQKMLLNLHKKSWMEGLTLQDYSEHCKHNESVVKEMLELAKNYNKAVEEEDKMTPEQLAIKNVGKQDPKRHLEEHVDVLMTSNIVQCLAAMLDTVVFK
UniProt Q9H974: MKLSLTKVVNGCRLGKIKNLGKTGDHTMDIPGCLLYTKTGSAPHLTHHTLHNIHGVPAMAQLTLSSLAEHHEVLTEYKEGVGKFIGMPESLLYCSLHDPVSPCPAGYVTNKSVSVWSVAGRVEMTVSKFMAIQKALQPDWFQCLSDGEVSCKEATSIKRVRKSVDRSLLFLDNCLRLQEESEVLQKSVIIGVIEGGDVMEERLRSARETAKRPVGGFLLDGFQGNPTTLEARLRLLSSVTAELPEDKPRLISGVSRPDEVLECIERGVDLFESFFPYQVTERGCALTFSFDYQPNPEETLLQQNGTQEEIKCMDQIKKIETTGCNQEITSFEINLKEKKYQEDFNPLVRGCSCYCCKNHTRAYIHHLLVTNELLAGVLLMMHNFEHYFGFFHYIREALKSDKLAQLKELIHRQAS
UniProt Q3MIT2: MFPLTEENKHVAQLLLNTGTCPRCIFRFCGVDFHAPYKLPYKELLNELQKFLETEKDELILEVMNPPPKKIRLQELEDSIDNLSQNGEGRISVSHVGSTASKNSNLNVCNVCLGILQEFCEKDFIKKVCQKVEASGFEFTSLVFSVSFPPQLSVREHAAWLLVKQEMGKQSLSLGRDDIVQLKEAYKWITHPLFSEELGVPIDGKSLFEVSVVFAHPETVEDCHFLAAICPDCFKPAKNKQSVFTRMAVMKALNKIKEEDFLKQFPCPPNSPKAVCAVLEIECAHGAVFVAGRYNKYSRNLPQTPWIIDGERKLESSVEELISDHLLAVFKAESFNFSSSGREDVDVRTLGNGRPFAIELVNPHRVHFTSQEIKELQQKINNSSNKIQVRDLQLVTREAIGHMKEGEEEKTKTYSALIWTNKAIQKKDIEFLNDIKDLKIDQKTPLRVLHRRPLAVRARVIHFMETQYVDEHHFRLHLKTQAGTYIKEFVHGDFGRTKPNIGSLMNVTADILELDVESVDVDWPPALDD

Compound in the experiment: C=CC(=O)N1CCC[C@@H](n2nc(-c3ccc(Oc4ccccc4)cc3)c3c(N)ncnc32)C1 [ibrutinib]
The experiment can be described thus: log2 fold change, soluble protein after heating vs DMSO (PISA); higher = thermal stabilisation; K562 cells, 10 uM, 30 min; active = over 0.2 and 3.5 SD of the protein, either way, in both replicates (recomputed). In outline: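 K562 cells (2×10^6 cells/mL) were treated with 10 μM compound for 30 min, and aliquots were heated for 3 min over 48°C-58°C. Pooled aliquots were extracted in PBS with 0.5% NP-40 at 4°C, and the supernatant after 21,000xg for 90 min was measured by TMTpro 16plex LC-MS/MS with channel sums equalised. Reported thermal stability, relative to control samples and from duplicates, is a log2 fold change.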
With PXMP2 (UniProt Q9NR77), the log2 fold change is inactive: -0.012. Consider PSPH (UniProt P78330), for which the log2 fold change was inactive: 0.006. For the target QTRT1 (UniProt Q9BXR0), the log2 fold change was inactive: 0.047. For the target PUS7 isoform 2 (UniProt Q96PZ0), the log2 fold change was inactive: -0.002.

On to PZP (UniProt P20742), for which the log2 fold change is inactive: 0.075.

On to QPCTL (UniProt Q9NXS2), for which the log2 fold change is inactive: -0.067. The value for PTMS (UniProt P20962) was inactive: -0.002; that for PWP2 (UniProt Q15269) was inactive: -0.007. The value for PSMA8 (UniProt Q8TAA3) was inactive: -0.003. On to QDPR (UniProt P09417), for which the log2 fold change was inactive: 0.04. For the target PSME1 (UniProt Q06323), the log2 fold change was inactive: -0.039. For the target PSME2 (UniProt Q9UL46), the log2 fold change is inactive: -0.021. Next, PRTFDC1 (UniProt Q9NRG1): inactive: 0.013; PSMB1 (UniProt P20618): inactive: 0.02; PTPRA (UniProt P18433): inactive: -0.081.

As for PSMD4 (UniProt P55036), the log2 fold change is inactive: 0.004. The value for PUS7L (UniProt Q9H0K6) was inactive: -0.006; that for PSMD14 (UniProt O00487) was inactive: -0.087; that for PUM2 (UniProt Q8TB72) was inactive: 0.054.

In the case of PTPRC (UniProt P08575), the log2 fold change was inactive: 0.018. Consider QTRT2 isoform 4 (UniProt Q9H974), for which the log2 fold change is inactive: 0.034. PUS10 (UniProt Q3MIT2): the log2 fold change is inactive: 0.079.

Take PSMG4 isoform 2 (UniProt Q5JS54): the log2 fold change is inactive: -0.025.

Values taken from the supplement of paper PMC10849652.
